Values from PubChem BioAssay AID1053208 (Peter MacCallum Cancer Centre, 2014)
The whole screen tested about 17,000 reagents; shown is an unselected part. In the full data, 788 (4.7%) got an active call. 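Calls rest on z-score classes alone; an extra cut-off of viability at most 70% of control was not applied to them.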 A reagent listed more than once was tested more than once; the source does not tell the runs apart. Further read-outs or replicates are left out here.

Screen: 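Synthetic lethal interactions between gene loss and doxorubicin in osteosarcoma cells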 (primary screen)
Cells: mouse osteosarcoma cells, early-passage culture from an engineered mouse model of fibroblastic bone tumour
Knock-down reagent: siRNA pool against mouse genes, 40 nM
Timing: about 120 h (48 h before drug, then 72 h with drug)
Challenge: doxorubicin 100 nM for 72 h, roughly 30-40% inhibitory dose
Measurement: 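Luminescent ATP signal taken as viability with or without 100 nM doxorubicin for 72 h; mean of two wells set against non-targeting siRNA and turned into robust z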
Reading the numbers: viability z-score with doxorubicin: higher = more viable cells under doxorubicin; viability z-score without drug: higher = more viable cells with knock-down alone
Rule for the call: 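Called active if knock-down leaves viability unchanged without drug (z within -2 to 2) but lowers it with doxorubicin (z at or under -2)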

The opening 3 records, to show the layout:
| gene | combined z-score class | viability z-score with doxorubicin | viability z-score without drug | outcome |
| --- | --- | --- | --- | --- |
| Tpsab1 | no change with or without drug | 0.11 | 0.51 | inactive |
| Plpp2 | no change with or without drug | -0.45 | 0.34 | inactive |
| Cenpa | no change with or without drug | -1.35 | -0.17 | inactive |

The listing, from the first entry:
| gene | combined z-score class | viability z-score with doxorubicin | viability z-score without drug | outcome |
| --- | --- | --- | --- | --- |
| Tpsab1 | no change with or without drug | 0.11 | 0.51 | inactive |
| Plpp2 | no change with or without drug | -0.45 | 0.34 | inactive |
| Cenpa | no change with or without drug | -1.35 | -0.17 | inactive |
| Or51a39 | no change with or without drug | -0.34 | -0.84 | inactive |
| Adsl | no change with or without drug | 1.8 | 0.51 | inactive |
| Yae1d1 | no change with or without drug | 0.11 | 1.18 | inactive |
| Spr | no change with or without drug | 0.34 | -0.51 | inactive |
| Fam78b | no change with or without drug | 0.67 | -0.84 | inactive |
| Ssrp1 | no change with or without drug | 0.9 | 0.67 | inactive |
| Or10a4 | no change with or without drug | -0.45 | -1.18 | inactive |
| Dcun1d5 | no change with or without drug | 0.34 | 0.51 | inactive |
| Zfp738 | no change with or without drug | 0 | -0.51 | inactive |
| Ddx50 | no change with or without drug | -0.22 | -0.34 | inactive |
| Bop1 | low cell count without drug only | -0.9 | -4.05 | inactive |
| Miso1 | no change with or without drug | 1.57 | 0.84 | inactive |
| A830018L16Rik | no change with or without drug | 0.11 | 0.67 | inactive |
| Or2y1d | no change with or without drug | -1.69 | -1.85 | inactive |
| Adgrb1 | no change with or without drug | -1.01 | 1.69 | inactive |
| Xrcc6 | no change with or without drug | 0.45 | -0.17 | inactive |
| Mrgprb8 | low cell count with doxorubicin only | -2.02 | -1.52 | active |
| Rad50 | no change with or without drug | -0.22 | -0.51 | inactive |
| Icosl | no change with or without drug | -1.91 | -0.17 | inactive |
| Adrb2 | no change with or without drug | -0.67 | 1.52 | inactive |
| Adrb2 | no change with or without drug | 0 | 0.34 | inactive |
| Necap1 | no change with or without drug | 1.12 | 1.85 | inactive |
| Notch2 | no change with or without drug | 0.67 | -1.18 | inactive |
| Il9r | no change with or without drug | -0.22 | 0.51 | inactive |
| Tslp | no change with or without drug | -1.35 | -1.35 | inactive |
| Dsg1b | no change with or without drug | -0.34 | -0.51 | inactive |
| Spatc1l | no change with or without drug | -0.56 | -0.17 | inactive |
| Cr1l | no change with or without drug | 0.45 | 0.67 | inactive |
| Elavl2 | no change with or without drug | 1.24 | 1.52 | inactive |
| Folr2 | no change with or without drug | 0.67 | 0 | inactive |
| Acsm5 | no change with or without drug | -0.11 | 0.51 | inactive |
